Data on four sequences can be found in paper PMC9640623.

By UniProt entry, the sequences of proteins in these tests, tags left out. Where a name states a change or a piece, a line headed by the entry shows the natural chain unless it says otherwise. Chains listed by the source or under a name are the forms on record and can include a tag or linker. Residues count along the entry.
UniProt Q9Y3Z3, whole entry K354R: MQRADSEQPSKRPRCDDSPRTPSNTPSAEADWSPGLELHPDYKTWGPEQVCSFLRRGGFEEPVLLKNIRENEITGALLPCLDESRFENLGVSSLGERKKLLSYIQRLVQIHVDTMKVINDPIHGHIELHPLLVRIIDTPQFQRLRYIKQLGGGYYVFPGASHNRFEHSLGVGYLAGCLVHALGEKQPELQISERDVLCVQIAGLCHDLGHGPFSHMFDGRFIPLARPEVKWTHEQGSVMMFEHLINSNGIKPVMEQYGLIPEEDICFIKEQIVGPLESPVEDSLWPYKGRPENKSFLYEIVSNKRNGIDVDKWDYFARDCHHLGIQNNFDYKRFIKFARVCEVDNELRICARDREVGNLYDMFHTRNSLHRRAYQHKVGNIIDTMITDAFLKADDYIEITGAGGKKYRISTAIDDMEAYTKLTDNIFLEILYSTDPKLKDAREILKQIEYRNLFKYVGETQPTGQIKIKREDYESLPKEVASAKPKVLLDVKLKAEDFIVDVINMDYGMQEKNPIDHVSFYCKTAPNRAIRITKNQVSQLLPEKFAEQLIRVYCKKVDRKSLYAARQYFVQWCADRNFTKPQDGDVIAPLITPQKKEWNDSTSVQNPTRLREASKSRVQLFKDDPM
UniProt Q9Y3Z3, whole entry K354Q: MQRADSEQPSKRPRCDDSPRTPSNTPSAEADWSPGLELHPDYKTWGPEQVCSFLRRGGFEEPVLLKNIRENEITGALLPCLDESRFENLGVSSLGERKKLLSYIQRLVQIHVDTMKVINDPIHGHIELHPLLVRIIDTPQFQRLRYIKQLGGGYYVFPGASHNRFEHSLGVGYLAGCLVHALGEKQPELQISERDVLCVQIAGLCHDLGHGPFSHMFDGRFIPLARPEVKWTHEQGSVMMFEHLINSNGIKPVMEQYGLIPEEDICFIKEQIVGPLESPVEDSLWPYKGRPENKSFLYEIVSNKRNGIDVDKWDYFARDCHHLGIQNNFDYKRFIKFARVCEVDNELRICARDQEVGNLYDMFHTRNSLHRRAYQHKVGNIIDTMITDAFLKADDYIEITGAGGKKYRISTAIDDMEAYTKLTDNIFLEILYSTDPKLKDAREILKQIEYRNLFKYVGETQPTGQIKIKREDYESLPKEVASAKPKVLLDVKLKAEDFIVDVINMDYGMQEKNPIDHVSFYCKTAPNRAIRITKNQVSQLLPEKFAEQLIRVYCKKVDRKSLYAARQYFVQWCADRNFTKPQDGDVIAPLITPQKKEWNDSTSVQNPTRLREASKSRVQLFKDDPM
UniProt Q9Y3Z3, other isoform, or with tags, fused parts or gaps: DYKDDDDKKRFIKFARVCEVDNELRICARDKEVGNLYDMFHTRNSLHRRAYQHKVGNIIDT
UniProt Q9Y3Z3, 300-465: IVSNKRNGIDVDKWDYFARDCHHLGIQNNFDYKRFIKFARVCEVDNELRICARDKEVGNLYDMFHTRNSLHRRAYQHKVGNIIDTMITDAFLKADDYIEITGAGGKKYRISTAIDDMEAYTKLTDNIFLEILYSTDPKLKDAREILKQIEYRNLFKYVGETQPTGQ
UniProt Q99708: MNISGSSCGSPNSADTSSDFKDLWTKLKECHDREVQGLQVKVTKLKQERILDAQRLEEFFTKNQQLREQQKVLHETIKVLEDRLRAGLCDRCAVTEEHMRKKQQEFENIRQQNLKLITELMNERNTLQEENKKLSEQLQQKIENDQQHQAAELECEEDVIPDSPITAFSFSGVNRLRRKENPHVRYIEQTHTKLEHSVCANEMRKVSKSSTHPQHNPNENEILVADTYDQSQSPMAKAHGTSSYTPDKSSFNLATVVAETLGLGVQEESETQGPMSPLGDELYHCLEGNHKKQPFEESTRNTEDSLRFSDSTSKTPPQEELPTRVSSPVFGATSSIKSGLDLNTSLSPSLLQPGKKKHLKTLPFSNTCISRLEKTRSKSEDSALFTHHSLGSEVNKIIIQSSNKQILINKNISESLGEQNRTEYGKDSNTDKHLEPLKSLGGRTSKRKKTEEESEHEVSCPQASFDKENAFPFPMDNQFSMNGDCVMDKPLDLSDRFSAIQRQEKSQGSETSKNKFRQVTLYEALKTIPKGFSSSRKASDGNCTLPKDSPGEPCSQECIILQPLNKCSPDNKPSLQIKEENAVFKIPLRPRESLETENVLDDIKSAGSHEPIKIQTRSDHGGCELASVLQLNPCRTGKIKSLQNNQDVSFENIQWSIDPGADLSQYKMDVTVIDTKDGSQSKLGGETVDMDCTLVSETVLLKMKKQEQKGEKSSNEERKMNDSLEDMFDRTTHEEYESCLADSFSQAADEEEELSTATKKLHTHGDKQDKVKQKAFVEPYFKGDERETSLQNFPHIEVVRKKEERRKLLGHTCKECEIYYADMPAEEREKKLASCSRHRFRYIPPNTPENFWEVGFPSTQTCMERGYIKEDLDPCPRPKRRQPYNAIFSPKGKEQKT

Construct, isoform or probe ends are uncertain for at least one entry. For some assays here: Where cells or extracts were used, other partners may take part. For some assays here: Negatives hold for the conditions tested. For some assays here: A weaker result is weaker than the reference pair of the same experiment.

One data set concerns the target SAMHD1 (endogenous) (UniProt Q9Y3Z3). The data set can be described thus: pull-down. Conditions: Pull-down: 40 pmol biotin-DNA on streptavidin beads, 10 mM Tris-HCl pH 7.5, 100 mM NaCl, 10% glycerol, 10 ug/mL BSA, 0.05% NP40, 0.35% CHAPS, 4 C overnight, protein in an extract.
A further data set addresses SAMHD1-GFP WT (UniProt Q9Y3Z3). The data set can be described thus: pull-down. Conditions: 293T lysate, increased after IR, Pull-down: 40 pmol biotin-DNA on streptavidin beads, 10 mM Tris-HCl pH 7.5, 100 mM NaCl, 10% glycerol, 10 ug/mL BSA, 0.05% NP40, 0.35% CHAPS, 4 C overnight, protein in a lysate after overexpression, protein details: GFP.
The target of another data set is SAMHD1-GFP K354R (UniProt Q9Y3Z3). The data set can be described thus: pull-down. The settings on record: 293T lysate, Pull-down: 40 pmol biotin-DNA on streptavidin beads, 10 mM Tris-HCl pH 7.5, 100 mM NaCl, 10% glycerol, 10 ug/mL BSA, 0.05% NP40, 0.35% CHAPS, 4 C overnight, protein in a lysate after overexpression, protein details: GFP.
A further data set has as its target SAMHD1-GFP K354Q (UniProt Q9Y3Z3). The data set can be described thus: pull-down. The settings on record: 293T lysate, Pull-down: 40 pmol biotin-DNA on streptavidin beads, 10 mM Tris-HCl pH 7.5, 100 mM NaCl, 10% glycerol, 10 ug/mL BSA, 0.05% NP40, 0.35% CHAPS, 4 C overnight, protein in a lysate after overexpression, protein details: GFP.
In data set [1] the target is FLAG-SAMHD1 (332-384) peptide, non-acetylated (UniProt Q9Y3Z3). The data set can be described thus: EMSA. The settings on record: 0.2 uM ssDNA, dose-dependent shift, 250 uM dNTP, EMSA: 25 mM Tris-Cl, 50 mM KCl, 4.2 mM MgCl2, 5% glycerol, 1 mM EDTA, pH 7.9, 30 min, room temperature, protein details: N-terminal FLAG (DYKDDDDK), label: 3'-biotin, single-stranded DNA.
The next data set has as its target SAMHD1-GFP (300-465) (UniProt Q9Y3Z3). The data set can be described thus: pull-down. Conditions: 293T lysate, increased after IR; Pull-down: 40 pmol biotin-DNA on streptavidin beads, 10 mM Tris-HCl pH 7.5, 100 mM NaCl, 10% glycerol, 10 ug/mL BSA, 0.05% NP40, 0.35% CHAPS, 4 C overnight; protein in a lysate after overexpression; residues 300-465; protein details: GFP, myc-NLS; label: 3'-biotin; single-stranded DNA.

The target of data set [2] is FLAG-SAMHD1 (332-384) peptide, non-acetylated (UniProt Q9Y3Z3). The data set can be described thus: pull-down. The settings on record: 8 ug peptide; Pull-down: 40 pmol biotin-DNA on streptavidin beads, 10 mM Tris-HCl pH 7.5, 100 mM NaCl, 10% glycerol, 10 ug/mL BSA, 0.05% NP40, 0.35% CHAPS, 4 C overnight; protein details: N-terminal FLAG (DYKDDDDK); label: 3'-biotin; single-stranded DNA.

The target in another data set is CtIP (endogenous) (UniProt Q99708). The data set can be described thus: pull-down. The settings on record: Pull-down: 40 pmol biotin-DNA on streptavidin beads, 10 mM Tris-HCl pH 7.5, 100 mM NaCl, 10% glycerol, 10 ug/mL BSA, 0.05% NP40, 0.35% CHAPS, 4 C overnight, protein in an extract, label: 3'-biotin, single-stranded DNA.
The mark [3] stands for this setting: label: 3'-biotin, single-stranded DNA.

“TCACCGTATAGCAGGGTAAACCTCGAGCGATCCGTCCTAGCAAGC / GCTTGCTAGGACGGATCGCTCGAGG [5' overhang DNA (oligos 4 and 3)]”: the binding result with SAMHD1 (endogenous) (293T lysate, strongest substrate, increased after IR, label: 3'-biotin on strand 1) was “binds”; with SAMHD1-GFP WT (label: 3'-biotin on strand 1), “binds”; with SAMHD1-GFP K354R (label: 3'-biotin on strand 1) it was “binds”; with SAMHD1-GFP K354Q (label: 3'-biotin on strand 1) it was “binds more weakly”.
For the sequence “GCTTGCTAGGACGGATCGCTCGAGG [ssDNA (oligo 2)]”, the binding result is reported as “binds” in data set [1]; “binds” in the data set with SAMHD1-GFP (300-465); “binds” with SAMHD1 (endogenous) (293T lysate, increased after 10 Gy IR, order 5' overhang > ssDNA > 3' overhang, label: 3'-biotin, single-stranded DNA); “binds more weakly” with SAMHD1 (endogenous) (SIRT1-depleted 293T lysate, IR, label: 3'-biotin, single-stranded DNA); “binds” with SAMHD1-GFP WT (setting [3]); “binds” with SAMHD1-GFP K354R (setting [3]). The binding result was “binds” in data set [2]; “binds” with CtIP (endogenous) (293T lysate, increased after IR); “binds more weakly” with CtIP (endogenous) (SAMHD1-depleted 293T lysate, IR, rescued by SAMHD1-GFP WT and K354R, not K354Q); “binds more weakly” with CtIP (endogenous) (SIRT1-depleted 293T lysate, IR); “binds more weakly” with SAMHD1-GFP K354Q (setting [3]).
Take “GCTTGCTAGGACGGATCGCTCGAGGTTTACCCTGCTATACGGTGA / CCTCGAGCGATCCGTCCTAGCAAGC [3' overhang DNA (oligos 5 and 1)]”: in the data set with SAMHD1 (endogenous) (293T lysate, below ssDNA, increased after IR, label: 3'-biotin on strand 1), the binding result is “binds more weakly”.
As for “CCTCGAGCGATCCGTCCTAGCAAGC (double strand) [dsDNA blunt (oligos 1 and 2)]”, the binding result with SAMHD1 (endogenous) (293T lysate, label: 3'-biotin on strand 2) was “no binding”.
